# Results taken from patent publication US20060110388A1.
# The chains behind the UniProt entries cited, without tags or fusion partners. Residues count along the entry.
# UniProt P05067, residues 672-711: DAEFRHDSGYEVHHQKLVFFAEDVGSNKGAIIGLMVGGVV
# Numbering of substitutions follows the chain as printed. These are yes or no findings as the source states them, for the method shown. Some binding calls cover weakened binding; strength is not graded here.
# B1: 6D7 Fab (Fab, V domains shown)
# VH: EVQLVESGGGLVKPGGSLRLSCAASGFTFSRYSMSWVRQAPGKGLEWVGQINSRGNSTYYPDTVKGRFTISRDDSKNTLYLQMNSLKTEDTAVYYCTTGDFWGQGTLVTVSS
# VL: DIVMTQTPLSLSVTPGQPASISCRSSQSLIYLDGNAYLHWYLQKPGQSPQLLIYKVSNRFSGVPDRFSGSGSGTDFTLKISRVEAEDVGVYYCSQSTHSPWTFGGGTKVEIK
# B2: 3E10 Fab (Fab, V domains shown)
# VH: B1 VH
# VL: B1 VL with L32S, A36H
# B3: 5A11 Fab (Fab, V domains shown)
# VH: B1 VH
# VL: B1 VL with L32S, F60R
# B4: 6C3 Fab (Fab, V domains shown)
# VH: B1 VH
# VL: B1 VL with L32S, S94T
# B5: 1E8 Fab (Fab, V domains shown)
# VH: B1 VH
# VL: B1 VL with L32S, T102S
# B6: A3 Fab (Fab, V domains shown)
# VH: B1 VH with R54S
# VL: B1 VL with L32S, S99T
# B7: A4 Fab (Fab, V domains shown)
# VH: B1 VH with R54P, F101S
# VL: B1 VL with L32S
# B8: 1C5 Fab (Fab, V domains shown)
# VH: B1 VH with R54V, G55A
# VL: B1 VL with L32S
# B9: 3E2 Fab (Fab, V domains shown)
# VH: B1 VH
# VL: B1 VL with L32S, A36N
# B10: 5B10 Fab (Fab, V domains shown)
# VH: B1 VH
# VL: B1 VL with L32S, K55R
# B11: 3D5 Fab (Fab, V domains shown)
# VH: B1 VH with R54T
# VL: B1 VL with L32S
# B12: 1A12 Fab (Fab, V domains shown)
# VH: B1 VH with S53I, S57N
# VL: B1 VL with L32S
# B13: D3 Fab (Fab, V domains shown)
# VH: B1 VH with R54I, F101W
# VL: B1 VL with L32S
# B14: 5C8 Fab (Fab, V domains shown)
# VH: B1 VH
# VL: B1 VL with L32S, S61W
# B15: 1A1 Fab (Fab, V domains shown)
# VH: B1 VH with F27Y, S53I, S57N
# VL: B1 VL with R24S, L32S, S94T
# B16: 5D1 Fab (Fab, V domains shown)
# VH: B1 VH
# VL: B1 VL with L32S, S57Y
# Target: amyloid beta peptide (Aβ), form not stated (UniProt P05067)
# Assay: screening: capture filter lift assay and capture ELISA
row,binding,Binder
1,binds,B1
2,binds,B2
3,binds,B3
4,binds,B4
5,binds,B5
6,binds,B6
7,binds,B7
8,binds,B8
9,binds,B9
10,binds,B10
11,binds,B11
12,binds,B12
13,binds,B13
14,binds,B14
15,binds,B15
16,binds,B16
